Substitutions are numbered along the chain they refer to. The list shows a part of the results. For part of these data: At the low end of the ranking the order means little. For part of these data: The source does not settle which construct or isoform was used. A value given as a limit tells only on which side of the number the result lay.

Consider 16 sequences from publication PMC8384837.

What all share (details): yeast three-hybrid, YBZ-1, SC-Leu-His + 0.5 mM 3-AT, 4 days
In experiment [1] the target is T1, PUM1 PUF domain R1-QFR R2-VFQ R7-NPG S863Q + R864F + Q867R + N899V + Y900F + S1079N + N1080P + E1083G (UniProt Q14671).
T1 sequence: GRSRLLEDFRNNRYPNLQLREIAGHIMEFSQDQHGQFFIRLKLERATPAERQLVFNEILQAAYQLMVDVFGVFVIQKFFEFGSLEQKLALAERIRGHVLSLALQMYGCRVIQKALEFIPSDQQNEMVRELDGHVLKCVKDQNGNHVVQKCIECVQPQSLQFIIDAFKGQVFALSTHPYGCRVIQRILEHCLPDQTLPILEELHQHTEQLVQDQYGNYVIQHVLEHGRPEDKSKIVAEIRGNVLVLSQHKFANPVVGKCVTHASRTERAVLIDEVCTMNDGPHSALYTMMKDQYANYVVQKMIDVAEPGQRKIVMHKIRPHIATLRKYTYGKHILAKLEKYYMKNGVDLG

In experiment [2] the target is T2, PUM1 PUF domain R3-THE R4-TFR C935T + R936H + Q939E + N971T + H972F + Q975R (UniProt Q14671).
T2 sequence: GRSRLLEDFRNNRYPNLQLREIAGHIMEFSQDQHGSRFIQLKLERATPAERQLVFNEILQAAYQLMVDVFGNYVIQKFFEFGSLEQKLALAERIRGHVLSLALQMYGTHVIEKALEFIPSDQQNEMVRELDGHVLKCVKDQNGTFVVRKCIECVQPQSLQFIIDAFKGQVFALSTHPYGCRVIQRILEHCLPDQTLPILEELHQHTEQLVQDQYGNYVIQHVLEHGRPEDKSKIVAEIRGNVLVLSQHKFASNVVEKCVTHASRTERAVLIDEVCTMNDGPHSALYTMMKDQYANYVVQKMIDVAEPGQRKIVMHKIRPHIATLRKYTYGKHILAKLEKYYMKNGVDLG

Experiment [3] deals with T3, PUM1 PUF domain R2-VFQ R3-THE R4-TFR N899V + Y900F + C935T + R936H + Q939E + N971T + H972F + Q975R (UniProt Q14671).
T3 sequence: T2 sequence with N72V, Y73F

Experiment [4] addresses T4, PUM1 PUF domain R5-PHQ R6-SWD C1007P + R1008H + N1043S + Y1044W + Q1047D (UniProt Q14671).
T4 sequence: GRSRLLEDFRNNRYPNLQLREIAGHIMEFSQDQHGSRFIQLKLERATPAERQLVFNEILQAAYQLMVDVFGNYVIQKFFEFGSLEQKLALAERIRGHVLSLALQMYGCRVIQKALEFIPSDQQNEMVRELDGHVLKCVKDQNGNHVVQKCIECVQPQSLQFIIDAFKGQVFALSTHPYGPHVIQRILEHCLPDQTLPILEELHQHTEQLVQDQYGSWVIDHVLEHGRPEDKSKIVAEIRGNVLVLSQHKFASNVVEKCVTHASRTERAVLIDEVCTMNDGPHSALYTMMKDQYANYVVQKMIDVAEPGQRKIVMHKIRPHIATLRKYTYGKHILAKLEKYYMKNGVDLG

In experiment [5] the target is T5, PUM1 PUF domain R6-SWD R7-NPG N1043S + Y1044W + Q1047D + S1079N + N1080P + E1083G (UniProt Q14671).
T5 sequence: T4 sequence with P180C, H181R, S252N, N253P, E256G

In experiment [6] the target is T6, PUM1 PUF domain R6-SWD R7-NPG N1043S + Y1044W + Q1047D + S1079N + N1080P + E1083G (Homo sapiens) (UniProt Q14671).
T6 sequence: T4 sequence with P180C, H181R, S252N, N253P, E256G

Take “GGCUAGAACUAGUGGAUCCCCCGGCGCCCGGCGGCUCGAGCCCGGGUAAGUGGAAAAGGUCUGCAUGCCGCCGGGCGCCAUGCCUGCAGGUCGACUCUAGAAAACAUG”: the binding signal (log2 enrichment (interaction score)) in experiment [1] is -4.36; in experiment [2] it was below -7.03.

Turning to “GGCUAGAACUAGUGGAUCCCCCGGCGCCCGGCGGCUCGAGCCCGGGUAAGUAUACGUCGUCUGCAUGCCGCCGGGCGCCAUGCCUGCAGGUCGACUCUAGAAAACAUG”, the binding signal (log2 enrichment (interaction score)) is -4.54 in experiment [1] and -6.09 in experiment [2].

For the sequence “GGCUAGAACUAGUGGAUCCCCCGGCGCCCGGCGGCUCGAGCCCGGGUAAGUUAAAAUCGUCUGCAUGCCGCCGGGCGCCAUGCCUGCAGGUCGACUCUAGAAAACAUG”, the binding signal (log2 enrichment (interaction score)) in experiment [1] is -6.59; in experiment [3], -5.88; in experiment [4], -8.59; in experiment [5], -2.32.

Take “GGCUAGAACUAGUGGAUCCCCCGGCGCCCGGCGGCUCGAGCCCGGGUAAGUUCAUGAAGUCUGCAUGCCGCCGGGCGCCAUGCCUGCAGGUCGACUCUAGAAAACAUG”: the results for the binding signal (log2 enrichment (interaction score)) in experiment [1] and in experiment [2] were -5.06 and -6.42, respectively.

For “GGCUAGAACUAGUGGAUCCCCCGGCGCCCGGCGGCUCGAGCCCGGGUAAGUUGCAAUAGUCUGCAUGCCGCCGGGCGCCAUGCCUGCAGGUCGACUCUAGAAAACAUG”, the binding signal (log2 enrichment (interaction score)) in experiment [1] is -5.49; in experiment [3], below -6.34; in experiment [4], below -7.29.

With “GGCUAGAACUAGUGGAUCCCCCGGCGCCCGGCGGCUCGAGCCCGGGUAAGUUUAUUUCGUCUGCAUGCCGCCGGGCGCCAUGCCUGCAGGUCGACUCUAGAAAACAUG”, the values for the binding signal (log2 enrichment (interaction score)) in experiment [1] and in experiment [2] were -6.56 and -7.7, respectively.

For the sequence “GGCUAGAACUAGUGGAUCCCCCGGCGCCCGGCGGCUCGAGCCCGGGUAAGUUCAAGGAGUCUGCAUGCCGCCGGGCGCCAUGCCUGCAGGUCGACUCUAGAAAACAUG”, the binding signal (log2 enrichment (interaction score)) in experiment [1] was below -5.99; in experiment [2], below -7.73.

“GGCUAGAACUAGUGGAUCCCCCGGCGCCCGGCGGCUCGAGCCCGGGUAAGUGAACAACGUCUGCAUGCCGCCGGGCGCCAUGCCUGCAGGUCGACUCUAGAAAACAUG”: the binding signal (log2 enrichment (interaction score)) in experiment [1] is -5.83; in experiment [2], below -6.89.

On to “GGCUAGAACUAGUGGAUCCCCCGGCGCCCGGCGGCUCGAGCCCGGGUAAGUCGACCACGUCUGCAUGCCGCCGGGCGCCAUGCCUGCAGGUCGACUCUAGAAAACAUG”, for which the binding signal (log2 enrichment (interaction score)) in experiment [1] was -3.47; in experiment [2], -6.56.

“GGCUAGAACUAGUGGAUCCCCCGGCGCCCGGCGGCUCGAGCCCGGGUAAGUUUAGGUGGUCUGCAUGCCGCCGGGCGCCAUGCCUGCAGGUCGACUCUAGAAAACAUG”: the binding signal (log2 enrichment (interaction score)) in experiment [1] is below -7.26; in experiment [2], -6.65.

Consider “GGCUAGAACUAGUGGAUCCCCCGGCGCCCGGCGGCUCGAGCCCGGGUAAGAUUACAUAGUCUGCAUGCCGCCGGGCGCCAUGCCUGCAGGUCGACUCUAGAAAACAUG”, for which the results for the binding signal (log2 enrichment (interaction score)) in experiment [1] and in experiment [2] were -2.98 and -6.38, respectively.

In the case of “GGCUAGAACUAGUGGAUCCCCCGGCGCCCGGCGGCUCGAGCCCGGGUAAGUGUCAAAUGUCUGCAUGCCGCCGGGCGCCAUGCCUGCAGGUCGACUCUAGAAAACAUG”, the binding signal (log2 enrichment (interaction score)) in experiment [1] was -5.5; in experiment [3] it was -5.52; in experiment [4], -9.09.

As to “GGCUAGAACUAGUGGAUCCCCCGGCGCCCGGCGGCUCGAGCCCGGGUAAGAUGACGUGGUCUGCAUGCCGCCGGGCGCCAUGCCUGCAGGUCGACUCUAGAAAACAUG”, the results for the binding signal (log2 enrichment (interaction score)) in experiment [1] and in experiment [2] were -3.66 and -5.79, respectively.

“GGCUAGAACUAGUGGAUCCCCCGGCGCCCGGCGGCUCGAGCCCGGGUAAGUGAUAGAAGUCUGCAUGCCGCCGGGCGCCAUGCCUGCAGGUCGACUCUAGAAAACAUG”: the binding signal (log2 enrichment (interaction score)) in experiment [1] is -6.73; in experiment [3], -5.48; in experiment [4], -7.72; in experiment [6] it was -0.59.

For “GGCUAGAACUAGUGGAUCCCCCGGCGCCCGGCGGCUCGAGCCCGGGUAAGAUUGCGUGGUCUGCAUGCCGCCGGGCGCCAUGCCUGCAGGUCGACUCUAGAAAACAUG”, the binding signal (log2 enrichment (interaction score)) in experiment [1] is -7.4; in experiment [2], -6.67.

“GGCUAGAACUAGUGGAUCCCCCGGCGCCCGGCGGCUCGAGCCCGGGUAAGUUAAAGAAGUCUGCAUGCCGCCGGGCGCCAUGCCUGCAGGUCGACUCUAGAAAACAUG”: the binding signal (log2 enrichment (interaction score)) is -5.83 in experiment [1], -5.61 in experiment [3] and below -0.81 in experiment [6].
